According to the supplement of paper PMC11237882:
The list shows a part of the results. Values are worked out from sequencing counts and are noisy.

Target: T1, Homer1 EVH1 domain
T1 chain: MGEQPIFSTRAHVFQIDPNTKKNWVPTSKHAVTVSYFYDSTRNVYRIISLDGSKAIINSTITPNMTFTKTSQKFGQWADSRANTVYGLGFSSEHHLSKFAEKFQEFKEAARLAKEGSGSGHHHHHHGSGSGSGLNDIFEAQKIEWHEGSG
Assay: enrichment score (AUC of log2 frequency ratio across FACS sorting rounds) (log2 AUC); higher = stronger enrichment for Homer1 EVH1 binding

Binder	enrichment score
IIEDNHLSRISPPTFYGLNSLILLVLMNNVLTRLPD	1.37
MTPNSTGEVPSPIPKGALGLSLALASLIITANLLLA	3.8
FAAVVAWCTLIPLSCFPNNMPGSTRIKARKRKQLHF	1.17
ICQLNCLLLLVSCVVILYSLKTHSLEARHEALSTCV	-0.66
YVKTGSVPSLAAWLLFGSLAGLGAYQLYQDPRNVWG	1.39
KIQALCFGVLGVLFTAVSLSFMFANWATSQSRMSGH	2.34
HWFSIINSVVVVFFLSGILSMIIIRTLRKDIANYNK	3.37
FDFMEKATLLIYTKTLLLPVVMVITCFIFKKTVGDI	-0.45
SQGYPSPLGGSEHASSPVPASGPSSGPQMSSGPGGA	-0.811
LGPVPILHIKSQLWLLVLILVVSGLSAGMSIIPTFP	1.03
NYTGKLNISADKENSIKLTSVVFILICCFIILENIF	0.566
MAAAAIPALLLCLPLLFLLFGWSRARRDDPHSLCYD	3.34
VTPIIVWSIINFFERLCLTWMFFFMMCVAERTYKQR	1.06
PWLHFVIAFPRSYKVFIILWTVYLWMSLLKTILWSR	1.69
SFQQWYHLPCRHILALLHTSQQPVGEAMVCRRWQKK	0.601
LHSSTLWALFVVNLYMFSNCLIVYVLYLQDKTVQFW	-0.0859
VLGWNCLAERAACSVVRPLARSHVALLSAAFFMVFG	2.31
ASPSEFSPPGGPVPLSVLILSLLVLFFSAVFVAAGP	2.95
MWCIVLFSLLAWVYAEPTMYGEILSPNYPQAYPSEV	2.74
MALIRKTFYFLFAMFFILVQLPSGCQAGLDFSQPFP	-1.99
MLALAKILLISTLFYSLLSGSQGKENQDINTTQNIA	4.48
SSHPNKAGQGHVGNIFQRLSGRYPKVQELLQGKRAR	2.78

Binder	enrichment score
MATARPPWMWVLCALITALLLGVTEHVLANNDVSCD	1.32
MKRVLVLLLAVTFGHALERGRDYEKNKVCKEFSHLG	-0.441
STYINELLVLVLSAFNVLTPALTILASYIFIIASIS	2.99
LISTLILVILSYTYIIRTILRIPSAQQRKKAFSTCF	3.44
VAAWVGGFVHSIAQLALILPLPFCGPNILDNFYCDV	0.674
NVSRQIEDTVLYGYYTLYSVILFCVFFWIPFVYFYY	3.52
TIILAASLSSVASWLALSCLVCCWLKRSKSRKTKPE	0.507
MGAQLSTLGHMVLFPVWFLYSLLMKLFQRSTPAITL	0.885
MMSFAPNASHSPVFLLLGFSRANISYTLLFFLFLAI	2.83
TSGSHMQPPAPAWETSLLLVLGVVIVLLAQCPMGRY	3.67
SAEGRWKACNTCASHLMVVTLLFGTALFVYLRPSSS	1.78
DGFLVNYQESQSVIHNLLDQIPDMFADSNENETVFA	0.433
KMKMTDTSEKPLWRTVLNVNGIILVTVAVFCHAYFA	0.852
YPERPIIFYAVCYMMVSLIFFIGFLLEHRVACNASI	3.92
LSTTYVGFCVYAGFFGFAFGWLSSVLFETLMDLVGP	-0.0232
YFIPNWQGIQLAITLPSFLFLLYYWVVPESPRWLIT	1.4
LARIKWDPSDPQIISEGLYAIAVVLSFSRIAYILPA	-4.16
MLLLLLLAPLFLRPPGAGGAQTPNATSEGCQIIHPP	0.497
MEKGLTLPQDCRDFVHSLKMRSKYALFLVFVVIVFG	-1.13
TGIRRHLHILIGPSVAIILFIILFFFLLHCCCSNKK	-2.94
TSHRETQKAYLLAAGVIVCIYIICAVILILGVREQR	1.83
HLSFPFSIIFSTVLYCGEVAFGLYMFEIYRKANDTF	2.03
